Results deposited as PubChem BioAssay AID1259425 (University of Nebraska Medical Center, 2018).

Aim: 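Seek colon cancer weak points whose silencing resembles KSR1 loss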 (primary screen)
Cell system: HCT116 human colon cancer cells
Reagents: siRNA pool against human genes, 50 nM siRNA
Read-out: 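After 50 nM siRNA pool, branched-DNA assay measures six marker transcripts per well, minus blank, normalised to the geometric mean of two housekeeping transcripts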
Reading the numbers: BNIP3L mRNA: higher = more BNIP3L transcript after knockdown
The deposit covers about 14,000 reagents; this is a part drawn at random. A reagent listed more than once was tested more than once; the source does not tell the runs apart. Further read-outs or replicates are left out here. The record does not give: the time to read-out.

With knock-down of GPR119 the results were BNIP3L mRNA, set 1 = 0.168. Depletion of GPR119 gave: BNIP3L mRNA, set 1 = 0.139. Depletion of GRB10 came out at: BNIP3L mRNA, set 1 = 0.108. Depletion of CARS1 resulted in: BNIP3L mRNA, set 1 = 0.125. FN3K scored BNIP3L mRNA, set 1 = 0.136. PRMT5 showed BNIP3L mRNA, set 1 = 0.11.

COL7A1 scored BNIP3L mRNA, set 1 = 0.0863. PCBP2 gave BNIP3L mRNA, set 1 = 0.0772. Against POLR1D, the entry reads BNIP3L mRNA, set 1 = 0.164. After knock-down of TGOLN2 the results were BNIP3L mRNA, set 1 = 0.12. Depletion of SAR1A resulted in: BNIP3L mRNA, set 1 = 0.16. RPS6KA6 scored BNIP3L mRNA, set 1 = 0.0871.

After knock-down of TPCN2 the results were BNIP3L mRNA, set 1 = 0.109. With knock-down of NDUFC2, the record shows BNIP3L mRNA, set 1 = 0.111. PTHLH showed BNIP3L mRNA, set 1 = 0.13. Against BANF1, the values are BNIP3L mRNA, set 1 = 0.0961.

Reformatted: results already given.
{"gene knocked down":"FN3K","BNIP3L mRNA, set 1":0.136}
{"gene knocked down":"PRMT5","BNIP3L mRNA, set 1":0.11}

The list goes on:
Knock-down of ATP2B3 gave: BNIP3L mRNA, set 1 = 0.0931. After knock-down of TESMIN, the record shows BNIP3L mRNA, set 1 = 0.196. For PLEKHF1 the deposit lists BNIP3L mRNA, set 1 = 0.258. With knock-down of ABCA6 the results were BNIP3L mRNA, set 1 = 0.0707. With knock-down of LRRN1 the results were BNIP3L mRNA, set 1 = 0.11. Silencing of TRMU gave: BNIP3L mRNA, set 1 = 0.0663.

For PRKCI the deposit lists BNIP3L mRNA, set 1 = 0.111. MED22 showed BNIP3L mRNA, set 1 = 0.282. DSCR8 scored BNIP3L mRNA, set 1 = 0.129. With knock-down of CUL5 the results were BNIP3L mRNA, set 1 = 0.126. ARL6 gave BNIP3L mRNA, set 1 = 0.219. After knock-down of SCUBE2, the record shows BNIP3L mRNA, set 1 = 0.076.
